Consider 23 compounds from PubChem BioAssay AID248 (DTP/NCI, 2004).

The assay has as its system L1210 leukemia ip in BDF1 mice, survival T/C. Briefly: NCI In Vivo Anticancer Drug Screen. Data for tumor model L1210 Leukemia (intraperitoneal) in B6D2F1 (BDF1) mice. The settings on record: T/C endpoint: mean survival time, higher T/C = longer survival.
[1] abbreviates: dose: 400.0 mg/kg/injection, schedule: Q01DX001 (ip), vehicle: carboxymethylcellulose (CMC).
Setting [2] is: dose: 200.0 mg/kg/injection, schedule: Q01DX001 (ip), vehicle: carboxymethylcellulose (CMC).
[3] abbreviates: dose: 400.0 mg/kg/injection, schedule: Q04DX003 (ip), vehicle: saline.
[4] abbreviates: dose: 200.0 mg/kg/injection, schedule: Q04DX003 (ip), vehicle: saline with Tween-80.
[5] abbreviates: dose: 400.0 mg/kg/injection, schedule: Q01DX001 (ip), vehicle: saline.
Setting [6] is: dose: 400.0 mg/kg/injection, schedule: Q04DX003 (ip), vehicle: saline with Tween-80.
[7] abbreviates: dose: 200.0 mg/kg/injection, schedule: Q01DX001 (ip), vehicle: saline.

The structures appear in SMILES notation. The list is a part of this screen's results and no random one: it gathers tests that were run many times, whatever their T/C, doses with no T/C, and many T/C values between a quarter and a half above the control. Further doses and runs are listed elsewhere. T/C: endpoint of the treated group in % of that of the vehicle group. Some doses have a count of surviving animals in place of a T/C: the source files T/C as zero there, which appears to mark a toxic dose or a test without result, not a measured value. Some doses without a T/C left all or most animals alive at the check, yet need not have been tolerated: the source hardly ever lists a survival T/C far under the control, and the zero likely stands for such cases as well. Survivors were counted at the toxicity check, usually on the fifth day, unless a day is given; later deaths do not show. Schedules are NCI's codes, read here as Q, the interval in days (D) or hours (H), X, the number of doses. Some schedule codes hold Z or #, which are not explained here. Some molecules as drawn cover several salts, stereoisomers or complexes of the source; a dose is that of the sample tested. Where survival is the endpoint, the PubChem record calls one and a half times the control and up active, and a quarter to a half above the control has no call in these data; cut-offs in other NCI protocols can differ. Some T/C values are followed by the survivors on the day toxicity was checked, most often the fifth; where none is given, no animal had died by that day. Some entries were tested several times; the results are listed from low to high.

Consider `NCCNCCN1CC1`, for which the survivor count by setting is: (dose: 100.0 mg/kg/injection, schedule: Q04DX002 (ip), vehicle: saline) 0 of 3; (dose: 200.0 mg/kg/injection, schedule: Q04DX002 (ip), vehicle: saline) 0 of 3; (dose: 400.0 mg/kg/injection, schedule: Q04DX002 (ip), vehicle: saline) 0 of 3.

For `CSc1ccc(OC(=O)Nc2ccc(C)c([N+](=O)[O-])c2)cc1C`, the survivor count (dose: 400.0 mg/kg/injection, schedule: Q01DX009 (ip), vehicle: saline with Tween-80) is recorded as 0 of 6.

As to `ClCC[n+]1ccc(-c2cc[n+](CCCl)cc2)cc1`, the survivor count by setting is: (dose: 1.25 mg/kg/injection, schedule: Q01DX Z (ip), vehicle: saline) 2 of 6; (dose: 2.5 mg/kg/injection, schedule: Q01DX Z (ip), vehicle: saline) 3 of 6; (dose: 5.0 mg/kg/injection, schedule: Q01DX Z (ip), vehicle: saline) 6 of 6; (dose: 10.0 mg/kg/injection, schedule: Q01DX Z (ip), vehicle: saline) 3 of 6.

Take `NC(=O)c1ccc[n+](CCCl)c1`: the survivor count is given as 4 of 6 (dose: 250.0 mg/kg/injection, schedule: Q01DX010 (ip), vehicle: saline) and 0 of 6 (dose: 500.0 mg/kg/injection, schedule: Q01DX010 (ip), vehicle: saline).

As to `O=C1C2CCN(CC2)C1Cn1cnc2c(Cl)ncnc21` (stereo unspecified), the survivor count (dose: 400.0 mg/kg/injection, schedule: Q01DX001 (ip), vehicle: Klucel (hydroxypropylcellulose) (HPC)) is 3 of 6.

Consider `CC(=O)N/N=C/c1ccc(N(C)C)cc1`, for which the survivor count under setting [1] is 2 of 4.

As for `O=C1CN(CCN2CC(=O)NC(=O)C2)CC(=O)N1`, the T/C is, setting by setting: (dose: 6.25 mg/kg/injection, schedule: Q03HX024 (ip), vehicle: steroid suspending solution) 146 % of control; (dose: 8.4 mg/kg/injection, schedule: Q03HX032 (ip), vehicle: other) 136 and 142 % of control [8 of 10 alive]; (dose: 12.5 mg/kg/injection, schedule: Q01DX Z (ip), vehicle: steroid suspending solution) 138 % of control; (dose: 12.5 mg/kg/injection, schedule: Q03HX008 (ip), vehicle: steroid suspending solution) 129 % of control; (dose: 25.0 mg/kg/injection, schedule: Q01DX009 (ip), vehicle: steroid suspending solution) 148 % of control; (dose: 25.0 mg/kg/injection, schedule: Q01DX009 (sc), vehicle: steroid suspending solution) 140 % of control. For the same compound, the T/C is, setting by setting: (dose: 25.0 mg/kg/injection, schedule: Q03HX008 (ip), vehicle: steroid suspending solution) 149 % of control; (dose: 50.0 mg/kg/injection, schedule: Q04DX003 (ip), vehicle: steroid suspending solution) 130 % of control; (dose: 100.0 mg/kg/injection, schedule: Q01DX009 (ip), vehicle: steroid suspending solution) 135 % of control; (dose: 100.0 mg/kg/injection, schedule: Q01DX009 (sc), vehicle: steroid suspending solution) 132 % of control; (dose: 100.0 mg/kg/injection, schedule: Q01DX Z (ip), vehicle: steroid suspending solution) 135 % of control.

With `COC(C)C/C=N/Nc1nnc(N/N=C/CC(C)OC)c2ccccc12` (stereo unspecified), the survivor count runs as follows: (dose: 20.0 mg/kg/injection, schedule: Q01DX001 (ip), vehicle: carboxymethylcellulose (CMC)) 0 of 4; (dose: 40.0 mg/kg/injection, schedule: Q01DX001 (ip), vehicle: carboxymethylcellulose (CMC)) 0 of 4; (dose: 50.0 mg/kg/injection, schedule: Q01DX001 (ip), vehicle: carboxymethylcellulose (CMC)) 0 of 4; (dose: 80.0 mg/kg/injection, schedule: Q01DX001 (ip), vehicle: carboxymethylcellulose (CMC)) 0 of 4; (dose: 100.0 mg/kg/injection, schedule: Q01DX001 (ip), vehicle: carboxymethylcellulose (CMC)) 0 of 4; under setting [2], 0 of 4. For the same compound, the survivor count under setting [1] is reported as 0 of 4.

Take `CC(=O)CC(C)(C)c1ccccc1`: the survivor count (dose: 400.0 mg/kg/injection, schedule: Q01DX009 (ip), vehicle: saline) is reported as 3 of 6.

`CC1CN(N)CC(C)N1Cc1ccccc1` (stereo unspecified): the survivor count (dose: 25.0 mg/kg/injection, schedule: Q01DX009 (ip), vehicle: water) is reported as 0 of 6; the survivor count (dose: 50.0 mg/kg/injection, schedule: Q01DX009 (ip), vehicle: water) was 0 of 6; the survivor count (dose: 100.0 mg/kg/injection, schedule: Q01DX009 (ip), vehicle: water) is 0 of 6; the survivor count (dose: 200.0 mg/kg/injection, schedule: Q01DX009 (ip), vehicle: water) is 0 of 6; the survivor count (dose: 400.0 mg/kg/injection, schedule: Q01DX009 (ip), vehicle: water) is listed as 0 of 6.

In the case of `CCOC(=O)C(CN(CC)CC)c1ccccc1` (stereo unspecified), the T/C under setting [2] was 129 % of control.

With `O=C(NO)Nc1ccccc1`, the survivor count runs as follows: (dose: 350.0 mg/kg/injection, schedule: Q01DX Z (ip), vehicle: methylcellulose (MC)) 2 of 6; (dose: 500.0 mg/kg/injection, schedule: Q01DX Z (ip), vehicle: methylcellulose (MC)) 0 of 6.

Take `N=C(N)SCc1ccc(Cl)c(Cl)c1`: the survivor count by setting is: (dose: 200.0 mg/kg/injection, schedule: Q01DX003 (ip), vehicle: Klucel (hydroxypropylcellulose) (HPC)) 0 of 6; under setting [3], 0 of 6.

With `C=C=CC(C)(C)C`, under “dose: 100.0 mg/kg/injection, schedule: Q04DX003 (ip), vehicle: saline”, the survivor count is on record as 3 of 6.

On to `CCC[CH2][Pb]([CH2]CCC)([CH2]CCC)[O]C(C)=O`, for which the survivor count is, setting by setting: (dose: 50.0 mg/kg/injection, schedule: Q01DX001 (ip), vehicle: saline) 2 of 4; (dose: 100.0 mg/kg/injection, schedule: Q04DX003 (ip), vehicle: saline with Tween-80) 2 of 3; under setting [4], 0 of 3; under setting [5], 1 of 4; under setting [6], 0 of 3.

Regarding `O=C1NC(=S)N/C1=C\c1ccco1`, the survivor count under setting [7] is reported as 1 of 6 and the survivor count under setting [5] is 1 of 6.

In the case of `CC(C(N)=O)N1C(=O)C2C3C=CC(C3)C2C1=O` (stereo unspecified), under setting [4], the survivor count is 3 of 3.

`Cc1cc(O)c(C=O)c(C)c1O`: where the note is “dose: 400.0 mg/kg/injection, schedule: Q01DX009 (ip), vehicle: Klucel (hydroxypropylcellulose) (HPC)”, the survivor count was 1 of 6.

Take `C=CC1CN2CCC1CC2C(O)c1ccnc2ccc(OC)cc12` (stereo unspecified) (tested in a mixture with another compound): the survivor count by setting is: (dose: 200.0 mg/kg/injection, schedule: Q01DX009 (ip), vehicle: Klucel (hydroxypropylcellulose) (HPC)) 2 of 6; (dose: 400.0 mg/kg/injection, schedule: Q04DX003 (ip), vehicle: Klucel (hydroxypropylcellulose) (HPC)) 1 of 6; under setting [6], 6 of 6; under setting [3], 0 of 6.

As for `CC[N+](CC)(CC)CC(=O)c1ccc(Br)cc1`, the survivor count by setting is: (dose: 200.0 mg/kg/injection, schedule: Q04DX002 (ip), vehicle: saline with Tween-80) 0 of 3; (dose: 400.0 mg/kg/injection, schedule: Q04DX002 (ip), vehicle: saline with Tween-80) 0 of 3.

With `O=C1NC(=S)S/C1=C\c1ccc([N+](=O)[O-])cc1`, the survivor count under setting [7] is given as 2 of 4 and the survivor count under setting [5] was 0 of 6.

As for `CNC(=O)C(c1ccccc1)C(O)c1ccccc1` (stereo unspecified), the survivor count under setting [5] is recorded as 1 of 4.

In the case of `Clc1cccc(N=C/C=C/c2ccccc2)c1`, the survivor count (dose: 400.0 mg/kg/injection, schedule: Q01DX009 (ip), vehicle: carboxymethylcellulose (CMC)) is reported as 3 of 3.
